Reference: US20220412958A1, “METHOD FOR EVALUATING SAFETY OF SUBSTANCE IN VITRO USING HUMAN IMMORTALIZED MYELOID CELLS” (MiCAN Technologies Inc., priority 2019, published 2022)
Some results were stated once for a whole list of compounds, not compound by compound.

How the values were obtained:
iPS-ML2 = assay: Evaluation test of skin sensitizing property and/or pyrogenic property: IL-6/IL-8 production by immortalized monocytes (ELISA); format: cell-based, human; details: iPS-ML2, 6 hr after addition, culture supernatant ELISA; negative control = medium alone; test substance up to 200 μg/mL
Excerpt: 1. […] 2. […] This operation was repeated once more. 3. […] 4. […] 5. […] 6. […] 7. […] 8. […] 9. […] 10.

THP-1 cells = details: quoted from ATLA 38, 275-284, 2010; cited from earlier work
mouse = details: quoted from ATLA 38, 275-284, 2010; cited from earlier work

Sc1nc2ccccc2s1 [P4, 2-Mercaptobenzothiazole]
production of IL-6 compared with the negative control (iPS-ML2): not less than 1.5 times
production of IL-8 compared with the negative control (iPS-ML2): not less than 1.5 times
expression level of CD86 and/or CD54 in h-CLAT (THP-1 cells): increase in the expression level
skin sensitizing property in LLNA (mouse): have skin sensitizing property
